Assay results reported in PubChem BioAssay AID504834 (National Center for Advancing Translational Sciences (NCATS), 2011).
Out of some 320,000 compounds screened, about 22,000 (6.9%) were called active. Inconclusive means that the source gave no clear call. Such entries were picked first, then a sample of the others. Calls come from the whole dose curve; as a rule, active = well fitted inhibition curve with a large enough effect; inconclusive = small, poorly fitted or top-dose-only effect, or another doubt; inactive = no such curve, though single readings can be large or run the other way. Where the call is inconclusive, the potency comes from a doubtful curve fit.

assay: Primary qHTS for delayed death inhibitors of the malarial parasite plastid, 96 hour incubation; conditions: P. falciparum luciferase reporter growth; series mostly up to 28.7 µM
Summary of the method: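 Infected RBCs, 2% Hct / 0.05% parasitemia final; luciferase-reporter P. falciparum; cpd 96 h, 37 C, 5% CO2; luciferase detection reagent; luminescence.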
% is set by controls: 0 for no effect and ±100 for the full control effect; potency is the fitted concentration of half-maximal effect.

Row | Compound | Potency | activity change, negative = inhibition
1 | CCOc1ccc2cc(C#N)c(SCC(=O)N3CCOCC3)nc2c1 | inactive | 
2 | COCCn1c(=S)[nH]c2cc(C(=O)N3CCN(c4cccc(Cl)c4)CC3)ccc2c1=O | active: 11.7 µM | 
3 | COc1ccc(N2CCN(C3CCCN(C(=O)CN4CCOC4=O)C3)CC2)cc1 (stereo unspecified) | inactive | 
4 | O=C(CCC(=O)Nc1ccccc1)NNS(=O)(=O)c1ccccc1[N+](=O)[O-] | inactive | 
5 | Cc1onc(C(=O)NN)c1C(=O)Nc1ncc(C(F)(F)F)cc1Cl | inactive | 
6 | COc1ccc(NC(=O)COC(=O)C2CCC2)cc1Cl | inactive | 
7 | CCCOc1ccc(C(=O)NCCN2CCOCC2)cc1 | inconclusive: 18.5 µM [inhibitor, single point] | 
8 | O=C(Cn1cc([N+](=O)[O-])ccc1=O)NCC1COc2ccccc2O1 (stereo unspecified) | inactive | 
9 | COCCCNC(=O)c1ccc(Cn2c(=O)c3ccccc3n(CC(=O)NCc3ccco3)c2=O)cc1 | inconclusive: 10.4 µM [inhibitor, single point] | 
10 | Nc1c(NCc2ccccc2F)c(=O)[nH]c(=O)n1Cc1ccccc1 | inactive | 
11 | COc1cc(OC)cc(C(=O)OCc2cc3ccccc3[nH]c2=O)c1 | inconclusive: 0.415 µM [inhibitor, full curve, poor fit] | 
12 | CCN(CC)CCNc1nc(-c2ccccc2)c2c(c1C#N)CC(C)(C)OC2 | active: 8.28 µM | 
13 | O=C(COc1ccc2ccccc2c1)NNC(=O)Nc1ccc(F)cc1F | inconclusive: 3.7 µM [inhibitor, full curve, poor fit] | 
14 | Cc1nnc(NCCc2ccccc2)n(N)c1=O | inconclusive: 5.86 µM [inhibitor, partial curve, poor fit] | 
15 | Cc1nc(S/C(=C/c2ccc(-c3ccc(Cl)cc3)o2)C(=O)O)n[nH]1 | inconclusive: 4.15 µM [inhibitor, single point] | 
16 | COc1ccc(OC)c(/C=N/N(CCC#N)C2=NS(=O)(=O)c3ccccc32)c1 | inconclusive: 18.5 µM [inhibitor, partial curve, poor fit] | 
17 | N#Cc1ccc(-c2cccnc2)nc1SCc1ccc(Cl)cc1Cl | inconclusive: 1.85 µM [inhibitor, partial curve, poor fit] | 
18 | CCOC(=O)C1CCN(Cc2ccc(O)c(OC)c2)CC1 | inactive | 
19 | C#C[C@@]1(O)CC[C@@H]2[C@@H]3CCC4=C(CCC(=O)C4)[C@H]3CC[C@]21C | inactive | 
20 | O=S(=O)(NCc1cccc(C(F)(F)F)c1)NCc1ccccc1F | inactive | 
21 | O=C(c1cc([N+](=O)[O-])ccc1N1CCCCC1)N1CCc2ccccc21 | inconclusive: 13.1 µM [inhibitor, single point] | 
22 | CCc1nonc1NC(=O)c1oc2cc(Br)ccc2c1C | inconclusive: 3.7 µM [inhibitor, partial curve] | 
23 | CC(C)[C@H](NC(=O)C1CCN(S(=O)(=O)c2ccc(F)cc2)CC1)C(=O)N1CCCC1 | inconclusive: 18.5 µM [inhibitor, single point] | 
24 | C/C(=N\NC(=O)c1ccc(O)cc1)c1ccc(NC(=O)Cc2ccccc2)cc1 | inconclusive: 18.5 µM [inhibitor, single point] | 

Row | Compound | Potency | activity change, negative = inhibition
25 | O=C(CSc1nc2ccccc2s1)Nc1cc(C(=O)O)cc(C(=O)O)c1 | inconclusive: 2.08 µM [inhibitor, full curve] | 
26 | Cc1cccc(NC(=O)C2C3CCC4C(CCC32)C4(Cl)Cl)c1 (stereo unspecified) | inactive | 
27 | O=C(CCCCCn1c(=S)[nH]c2ccc(Br)cc2c1=O)NCC1CCCO1 (stereo unspecified) | inconclusive: 18.5 µM [inhibitor, single point] | 
28 | CC(=O)Nc1ccc(Oc2cnc3ccccc3n2)cc1 | inactive | 
29 | O=C(Nc1ccc2nc[nH]c2c1)c1ccco1 | inactive | 
30 | COC(=O)N/N=C/c1sc(N2CCCCC2)nc1-c1cccs1 | inconclusive: 18.5 µM [inhibitor, partial curve, poor fit] | 
31 | Cc1cccc(NC(=S)N(Cc2cccs2)Cc2cc3cc(C)cc(C)c3[nH]c2=O)c1 | inconclusive: 18.5 µM [inhibitor, single point] | 
32 | c1ccc(-c2csc3ncnc(NCCN4CCOCC4)c23)cc1 | inconclusive: 2.62 µM [inhibitor, partial curve, poor fit] | 
33 | COc1ccc(-n2cc(CNCc3cnc4ccccn34)c(-c3cccc(F)c3)n2)cc1 | inactive | 
34 | Cc1ccc(CN(Cc2ccco2)C(=S)Nc2ccccc2C)cc1 | inconclusive: 18.5 µM [inhibitor, single point] | 
35 | CCn1c(/C=C/c2ccc(F)cc2)nc2ccccc2c1=O | inconclusive: 9.28 µM [inhibitor, single point] | 
36 | O=C1c2ccncc2C(=O)N1C1CCCCC1 | inconclusive: 14.7 µM [inhibitor, single point] | 
37 | S=C(Nc1cccc2ccccc12)NC1CCCCC1 | inconclusive: 2.62 µM [inhibitor, single point] | 
38 | O=C(NC12CC3CC(CC(C3)C1)C2)c1ccc(-c2ccc(Br)cc2)o1 | inconclusive: 18.5 µM [inhibitor, single point] | 
39 | CCOC(=O)CCCc1c[nH]c2ccccc12 | inconclusive: 0.0029 µM [inhibitor, full curve, poor fit] | 
40 | O=C(CCNC(=O)c1ccc(Br)cc1)Nc1ccccc1N1CCCC1 | inconclusive: 18.5 µM [inhibitor, single point] | 
41 | COc1ccc(C(=O)OCC(=O)NC2CC2)cc1S(=O)(=O)Nc1ccc(C)cc1 | inconclusive: 18.5 µM [inhibitor, partial curve, poor fit] | 
42 | CC(C)(Oc1ccc(Cl)cc1)C(=O)NCc1ccc(S(N)(=O)=O)cc1 | inconclusive: 0.329 µM [inhibitor, full curve] | 
43 | Cc1ccc(C(=O)NNc2cc(=O)n(C)c(=O)n2C)cc1C | inconclusive: 3.29 µM [inhibitor, single point] | 
44 | c1ccc(Cn2nnc3c(N4CCc5ccccc54)ncnc32)cc1 | inconclusive: 0.465 µM [inhibitor, full curve, poor fit] | 
45 | COc1ccc(C(CC(=O)N2CCOCC2)c2c(OC)cc(OC)c3c(-c4ccccc4)cc(=O)oc23)cc1 (stereo unspecified) | inconclusive: 0.928 µM [inhibitor, partial curve, poor fit] | 
46 | C/C(CC(=O)Nc1c(C)cc(C)cc1C)=N\NC(=O)Cc1ccccc1 | inactive | 
47 | Cc1ccc(OCC(=O)OCC(=O)c2cccc([N+](=O)[O-])c2)cc1C | inconclusive: 13.1 µM [inhibitor, partial curve] | 
48 | CCN(CC)C(=O)c1cccc(NC(=O)CCc2nc3sc4c(c3c(=O)[nH]2)CCCC4)c1 | inconclusive: 9.28 µM [inhibitor, partial curve] | 

Row | Compound | Potency | activity change, negative = inhibition
49 | COc1ccc(CNC(=O)c2cc(COc3c(F)cccc3F)on2)cc1OC | inconclusive: 18.5 µM [inhibitor, single point] | 
50 | O=C(CCN1N=C(c2ccccc2)CCC1=O)NC1CCCC1 | inconclusive: 13.1 µM [inhibitor, partial curve] | 
51 | CCOc1ccc(N=C(C)C2=C(O)c3ccccc3C2=O)cc1 | inactive | 
52 | O=S(=O)(NC1CC2CCC1C2)c1ccc(Cl)cc1 (stereo unspecified) | inactive | 
53 | CC1(C(=O)OCC(=O)c2c[nH]c3ccccc23)CC1(Cl)Cl (stereo unspecified) | inactive | 
54 | COc1ccccc1C1(O)C(=O)Nc2ccc(C)cc21 (stereo unspecified) | inconclusive: 0.928 µM [inhibitor, full curve, poor fit] | 
55 | CN(CC(=O)Nc1ccccc1C(=O)NC1CC1)Cc1cccs1 | inactive | 
56 | CCN(CC)c1ccc(/C=N/N2CCOCC2)cc1 | inconclusive: 18.5 µM [inhibitor, single point] | 
57 | CCN(CC)S(=O)(=O)c1ccc(NC(=O)CSc2ncnc3ccccc23)cc1 | inconclusive: 10.4 µM [inhibitor, single point] | 
58 | CCOc1ccccc1NC(=O)NCc1ccccc1F | inactive | 
59 | COc1ccccc1CNC(=O)COC(=O)c1ncc(Cl)c(Cl)c1Cl | inactive | 
60 | CC1CN(S(=O)(=O)c2ccc(C(=O)Nc3ccc(S(=O)(=O)N4CCOCC4)cc3)cc2)CC(C)O1 (stereo unspecified) | inconclusive: 18.5 µM [inhibitor, single point] | 
61 | O=C(N/N=C\c1ccc(Cl)cc1Cl)c1sccc1-n1cccc1 | inconclusive: 18.5 µM [inhibitor, single point] | 
62 | COc1ccc(-n2cc(-c3ccc(Cl)cc3)[nH]c2=S)cc1 | inconclusive: 2.33 µM [inhibitor, full curve, poor fit] | 
63 | N=C1N(/N=C/c2ccccc2)C(=Nc2ccccc2)C(=S)N1c1ccccc1 | inactive | 
64 | O=C(CSc1ccc(C(F)(F)F)cc1[N+](=O)[O-])N1CCOCC1 | inconclusive: 18.5 µM [inhibitor, single point] | 
65 | CCN(CC(=O)Nc1cc(Cl)ccc1-n1cncn1)Cc1nc2ccccc2c(=O)[nH]1 | inconclusive: 11.7 µM [inhibitor, partial curve] | 
66 | CN(C)C(=O)COc1ccc2cc(-c3ccccc3)c(=O)oc2c1 |  | inactive: 7.46% [at 5.75 µM]
67 | CC1=C(C(=O)OC(C)C)C(c2cccs2)C(C(=O)OC(C)C)=C(C)N1 | inconclusive: 10.4 µM [inhibitor, single point] | 
68 | Cc1ccc(S(=O)(=O)N(C)C)cc1NC(=O)COC(=O)c1sc2cc(Cl)ccc2c1Cl | inactive | 
69 | COc1ccc(-c2oc3c(OC)c(OC)c(OC)c(O)c3c(=O)c2OC)cc1OC | active: 3.29 µM | 
70 | Cc1cccc(C)c1NC(=O)Cn1cc(C=O)c2ccccc21 | inconclusive: 14.7 µM [inhibitor, single point] | 
71 | O=C(CCN1CCCO1)N1CCCC(N2CCN(c3ccccc3F)CC2)C1 (stereo unspecified) | inconclusive: 13.1 µM [inhibitor, single point] | 

Reformatted with tabs: 3 of the compounds above
Row	Compound	Potency	activity change, negative = inhibition
30	COC(=O)N/N=C/c1sc(N2CCCCC2)nc1-c1cccs1	inconclusive: 18.5 µM [inhibitor, partial curve, poor fit]	
31	Cc1cccc(NC(=S)N(Cc2cccs2)Cc2cc3cc(C)cc(C)c3[nH]c2=O)c1	inconclusive: 18.5 µM [inhibitor, single point]	
32	c1ccc(-c2csc3ncnc(NCCN4CCOCC4)c23)cc1	inconclusive: 2.62 µM [inhibitor, partial curve, poor fit]	
